Laboratory results as given in PubChem BioAssay AID256 (DTP/NCI, 2004).
The list shows only some results of the screen, not a fair sample: it is rich in T/C values a quarter to a half above the control, in often repeated tests (any T/C) and in doses without a T/C. Other doses and runs of a compound stand elsewhere. T/C is the treated group as % of the vehicle group. Some entries give survivors of the animals treated and no T/C: the source files T/C as zero there, which appears to mark a toxic dose or a test without result, not a measured value. Some survivor counts are full or nearly so, which does not show that the dose was tolerated: the source hardly ever lists a survival T/C far under the control, and the zero likely stands for such cases as well. Counts of survivors are from the toxicity check (mostly the fifth day) where no day follows; animals may have died later. Schedules are NCI's codes, taken here to give the interval after Q, in days (D) or hours (H), and the number of doses after X. For survival time, the PubChem record calls one and a half times the control and up active, and a quarter to a half above the control has no call in these data; cut-offs in other NCI protocols can differ. Some T/C values are followed by the survivors on the day toxicity was checked, most often the fifth; where none is given, no animal had died by that day. Some entries were tested several times; the results are listed from low to high.

Test system: CD2F1 mice, L1210 leukemia ip, survival T/C
Test: NCI In Vivo Anticancer Drug Screen. Data for tumor model L1210 Leukemia (intraperitoneal) in CD2F1 (CDF1) mice
Settings: higher T/C = longer survival
In short: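 Activity against a transplanted murine tumor was judged by comparing the compound group with a vehicle group. The outcome in the treated animals was divided by that in the controls.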

[1] = T/C endpoint: mean survival time, dose: 400.0 mg/kg/injection, schedule: Q04DX003 (ip), vehicle: saline with Tween-80
[2] = T/C endpoint: mean survival time, dose: 400.0 mg/kg/injection, schedule: Q01DX001 (ip), vehicle: saline with Tween-80
[3] = T/C endpoint: mean survival time, dose: 100.0 mg/kg/injection, schedule: Q01DX009 (ip), vehicle: saline with Tween-80
[4] = T/C endpoint: mean survival time, dose: 200.0 mg/kg/injection, schedule: Q01DX001 (ip), vehicle: saline with Tween-80
[5] = T/C endpoint: mean survival time, dose: 150.0 mg/kg/injection, schedule: Q01DX001 (ip), vehicle: saline
[6] = T/C endpoint: mean survival time, dose: 300.0 mg/kg/injection, schedule: Q01DX001 (ip), vehicle: saline

With CC(=O)C(Cl)C(=O)c1c(C)[nH]n(-c2ccccc2)c1=O (centres undefined) the survivor count (T/C endpoint: median survival time, dose: 200.0 mg/kg/injection, schedule: Q01DX005 (ip), vehicle: Klucel (hydroxypropylcellulose) (HPC)) was 1 of 6 and the survivor count (T/C endpoint: median survival time, dose: 400.0 mg/kg/injection, schedule: Q01DX005 (ip), vehicle: Klucel (hydroxypropylcellulose) (HPC)) was 0 of 6.
For CC(=O)NC(CSCc1c2ccccc2c(C)c2c1ccc1ccccc12)C(=O)O (centres undefined), the survivor count [1] was 6 of 6.
With CC(=O)Oc1cc(N=[N+]=[N-])c(OC(C)=O)cc1C the survivor count [2] was 0 of 3.
In the case of [B-][N+](C)(C)Cc1ccccc1, the survivor count [3] is reported as 4 of 6, the survivor count [4] is reported as 1 of 6 and the survivor count [2] is reported as 0 of 6.
With C=C(C)[C@]12CC(C)C34OC(/C=C\C=C\CCCCCCCCC)(O[C@@H]1[C@@H]3[C@@H]1O[C@]1(CO)[C@@H](O)[C@]1(O)C(=O)C(C)=C[C@@H]41)O2 (some centres undefined) the survivor count (T/C endpoint: mean survival time, dose: 3.0 mg/kg/injection, schedule: Q01DX009 (ip), vehicle: alcohol) was 0 of 6.
For CC(C(C(=O)O)S(=O)(=O)O)C(C(=O)O)S(=O)(=O)O (centres undefined), the survivor count (T/C endpoint: mean survival time, dose: 100.0 mg/kg/injection, schedule: Q01DX001 (ip), vehicle: other) was 0 of 3, the survivor count (T/C endpoint: mean survival time, dose: 200.0 mg/kg/injection, schedule: Q01DX001 (ip), vehicle: other) was 0 of 3 and the survivor count (T/C endpoint: mean survival time, dose: 400.0 mg/kg/injection, schedule: Q01DX001 (ip), vehicle: other) was 0 of 3.
With CNC[C@@H](O)c1ccc(O)c(O)c1 the survivor count (T/C endpoint: mean survival time, dose: 10.0 mg/kg/injection, schedule: Q01DX009 (ip), vehicle: saline) was 1 of 6, the survivor count (T/C endpoint: mean survival time, dose: 15.0 mg/kg/injection, schedule: Q01DX001 (ip), vehicle: saline) was 0 of 6 and the survivor count (T/C endpoint: mean survival time, dose: 20.0 mg/kg/injection, schedule: Q01DX009 (ip), vehicle: saline) was 0 of 6. The survivor count (T/C endpoint: mean survival time, dose: 30.0 mg/kg/injection, schedule: Q01DX001 (ip), vehicle: saline) was 0 of 6, the survivor count (T/C endpoint: mean survival time, dose: 40.0 mg/kg/injection, schedule: Q01DX009 (ip), vehicle: saline) was 0 of 6 and the survivor count (T/C endpoint: mean survival time, dose: 60.0 mg/kg/injection, schedule: Q01DX001 (ip), vehicle: saline) was 0 of 6. For the same molecule, the survivor count (T/C endpoint: mean survival time, dose: 120.0 mg/kg/injection, schedule: Q01DX001 (ip), vehicle: saline) was 0 of 6.
With CCCCCCCCCCCCCCCC(=O)OCC1OC(n2ccc(N)nc2=O)C(O)C1O (centres undefined) the T/C (T/C endpoint: mean survival time, dose: 6.25 mg/kg/injection, schedule: Q01DX001 (ip), vehicle: saline with Tween-80) was 132 % of control, the T/C (T/C endpoint: mean survival time, dose: 12.5 mg/kg/injection, schedule: Q01DX001 (ip), vehicle: saline with Tween-80) was 136 % of control and the T/C (T/C endpoint: mean survival time, dose: 32.0 mg/kg/injection, schedule: Q01DX008 (oral), vehicle: saline) was 126 % of control. For the same molecule, the T/C (T/C endpoint: mean survival time, dose: 64.0 mg/kg/injection, schedule: Q01DX008 (oral), vehicle: saline) was 138 % of control, the T/C (T/C endpoint: mean survival time, dose: 128.0 mg/kg/injection, schedule: Q01DX009 (oral), vehicle: saline) was 135 % of control and the T/C (T/C endpoint: mean survival time, dose: 256.0 mg/kg/injection, schedule: Q01DX009 (oral), vehicle: saline) was 145 % of control. The T/C (T/C endpoint: mean survival time, dose: 256.0 mg/kg/injection, schedule: Q04DX003 (oral), vehicle: saline) was 129 % of control, the T/C (T/C endpoint: mean survival time, dose: 512.0 mg/kg/injection, schedule: Q04DX003 (oral), vehicle: saline) was 128 % of control and the T/C (T/C endpoint: mean survival time, dose: 1024.0 mg/kg/injection, schedule: Q04DX003 (oral), vehicle: saline) was 140 % of control. The T/C (T/C endpoint: median survival time, dose: 125.0 mg/kg/injection, schedule: Q01DX001 (ip), vehicle: saline with Tween-80, evaluated on day 30) was 348 % of control, the T/C (T/C endpoint: median survival time, dose: 125.0 mg/kg/injection, schedule: Q01DX001 (ip), vehicle: saline with Tween-80, evaluated on day 45) was 548 % of control and the T/C (T/C endpoint: median survival time, dose: 125.0 mg/kg/injection, schedule: Q01DX001 (ip), vehicle: saline with Tween-80, evaluated on day 60) was 328 and 421 % of control. For the same molecule, the T/C (T/C endpoint: median survival time, dose: 150.0 mg/kg/injection, schedule: Q01DX001 (ip), vehicle: saline with Tween-80, evaluated on day 30) was 348 % of control, the T/C (T/C endpoint: median survival time, dose: 150.0 mg/kg/injection, schedule: Q01DX001 (ip), vehicle: saline with Tween-80, evaluated on day 45) was 548 % of control [9 of 10 alive] and the T/C (T/C endpoint: median survival time, dose: 150.0 mg/kg/injection, schedule: Q01DX001 (ip), vehicle: saline with Tween-80, evaluated on day 60) was 337 and 463 % of control [8 of 9 alive].
In the case of CC1=CC=CC(C)(C(Cl)Cl)C1=O (centres undefined), the survivor count [1] is reported as 1 of 6.
With O=C(O)CCC(=O)c1ccc2c(c1)CCCC2 the survivor count (T/C endpoint: median survival time, dose: 25.0 mg/kg/injection, schedule: Q04DX002 (ip), vehicle: saline with Tween-80) was 3 of 3, the survivor count (T/C endpoint: median survival time, dose: 50.0 mg/kg/injection, schedule: Q04DX002 (ip), vehicle: saline with Tween-80) was 3 of 3 and the survivor count (T/C endpoint: median survival time, dose: 100.0 mg/kg/injection, schedule: Q04DX002 (ip), vehicle: saline with Tween-80) was 3 of 3. The survivor count (T/C endpoint: median survival time, dose: 200.0 mg/kg/injection, schedule: Q04DX002 (ip), vehicle: saline with Tween-80) was 3 of 3.
For C1CC2(CCC13CS3)CS2 (centres undefined), the survivor count (T/C endpoint: mean survival time, dose: 400.0 mg/kg/injection, schedule: Q04DX002 (ip), vehicle: saline with Tween-80) was 0 of 3.
CC(=O)OCCC/C(=C\c1ccc(Cl)c(Cl)c1)[N+](=O)[O-] was tested, and the survivor count (T/C endpoint: mean survival time, dose: 200.0 mg/kg/injection, schedule: Q01DX001 (ip), vehicle: saline) was 2 of 6 and the survivor count (T/C endpoint: mean survival time, dose: 400.0 mg/kg/injection, schedule: Q01DX001 (ip), vehicle: saline) was 0 of 6.
In the case of CCC1CC2CN(CCc3c([nH]c4ccccc34)C(C(=O)OC)(c3cc4c(cc3OC)N(C)C3C(O)(C(=O)OC)C(OC(C)=O)C5(CC)C=CCN6CCC43C65)C2)C1 (centres undefined), the T/C (T/C endpoint: median survival time, dose: 2.0 mg/kg/injection, schedule: Q01DX009 (ip), vehicle: saline) is reported as 132 % of control, the survivor count (T/C endpoint: median survival time, dose: 4.0 mg/kg/injection, schedule: Q01DX009 (ip), vehicle: water) is reported as 10 of 10 and the survivor count (T/C endpoint: median survival time, dose: 8.0 mg/kg/injection, schedule: Q01DX009 (ip), vehicle: water) is reported as 0 of 10.
For CCCCC/C(C)=N\O, the survivor count [1] was 1 of 6.
With CC1[N-]C(/C=N/O)NC(C)N1.CC1[N-]C(/C=N/O)NC(C)N1.[Br][Ni+2][Br] (centres undefined) the survivor count [5] was 1 of 6 and the survivor count [6] was 0 of 6.
O=[As](O)(O)c1cccc2ccccc12 was tested, and the survivor count (T/C endpoint: mean survival time, dose: 5.0 mg/kg/injection, schedule: Q01DX009 (ip), vehicle: saline) was 1 of 3.
C[N+](C)(C)Cc1ccc([N+](=O)[O-])cc1 was tested, and the survivor count (T/C endpoint: mean survival time, dose: 75.0 mg/kg/injection, schedule: Q01DX001 (ip), vehicle: saline) was 2 of 6, the survivor count [5] was 0 of 6 and the survivor count [6] was 0 of 6.
For CCC(CC)C(O)CC(O)CC(C)C (centres undefined), the survivor count (T/C endpoint: mean survival time, dose: 200.0 mg/kg/injection, schedule: Q04DX003 (ip), vehicle: other) was 6 of 6.
For COc1ccc2c(c1)C/C(=N\O)C2=O, the survivor count [3] was 5 of 6.
With CN(C)c1nc(N)nc(-c2ccncc2)n1 the survivor count (T/C endpoint: mean survival time, dose: 100.0 mg/kg/injection, schedule: Q01DX002 (ip), vehicle: saline with Tween-80) was 0 of 3, the survivor count (T/C endpoint: mean survival time, dose: 200.0 mg/kg/injection, schedule: Q01DX002 (ip), vehicle: saline with Tween-80) was 0 of 3 and the survivor count (T/C endpoint: mean survival time, dose: 400.0 mg/kg/injection, schedule: Q01DX002 (ip), vehicle: saline with Tween-80) was 0 of 3.
CCC1CCC(NC(C)=O)CC1 (centres undefined) was tested, and the survivor count [4] was 3 of 6 and the survivor count [2] was 0 of 6.
For CN(C)CCCNCC#CCNCCCN(C)C, the survivor count (T/C endpoint: mean survival time, dose: 400.0 mg/kg/injection, schedule: Q04DX003 (ip), vehicle: saline) was 3 of 6.
In the case of OCCc1ccccc1, the survivor count (T/C endpoint: mean survival time, dose: 400.0 mg/kg/injection, schedule: Q03HX024 (ip), vehicle: saline with Tween-80) is reported as 0 of 6, the survivor count (T/C endpoint: mean survival time, dose: 1000.0 mg/kg/injection, schedule: Q01DX001 (ip), vehicle: saline with Tween-80) is reported as 0 of 6 and the survivor count (T/C endpoint: mean survival time, dose: 1000.0 mg/kg/injection, schedule: Q01DX009 (ip), vehicle: saline) is reported as 0 of 6. The survivor count (T/C endpoint: mean survival time, dose: 2000.0 mg/kg/injection, schedule: Q01DX001 (ip), vehicle: saline with Tween-80) was 0 of 6 and the survivor count (T/C endpoint: mean survival time, dose: 4000.0 mg/kg/injection, schedule: Q01DX001 (ip), vehicle: saline with Tween-80) was 0 of 6.
